These are yes or no findings as the source states them, for the method shown. In cells and extracts the contact can be indirect. Some entries that bind do so weakly or less than the wild type. For some assays here: Sequences can lack the tags named with a protein.
What was measured:
[1] = molecular target: T1, DIC-GFP (DIC LC8-binding peptide fused to GFP); assay: co-IP
T1 sequence: IVTYTKETQTP

Amino acid sequences for entries named in this document (tags omitted).
UniProt Q24117: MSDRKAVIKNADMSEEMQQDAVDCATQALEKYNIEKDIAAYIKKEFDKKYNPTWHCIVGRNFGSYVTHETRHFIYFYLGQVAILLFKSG

[2] = molecular target: LC8-GFP (full length LC8 fused to GFP) (UniProt Q24117); assay: co-IP

binding [1]: binds | binding [2]: binds
Substance: endogenous dynein light chain 8 (LC8) (from UniProt Q24117 1-89)

Source: publication PMC3861458
